# From the supplement of paper PMC8728848
# This is one part of the list.
# B1: PhypaEULS3 (Physcomitrella patens) (protein)
# chain: MLPVRLHCKADPNFNLAAVPGQGPVMVPFSPNDDFQVWYKDVTMSTRVKDETGSSAFSLINKATGQALRHAPEDLAQCLLADYDSNALDQTVLWTMSEDMGQGYCCIRLASQITRNLDVFRGDKKSGGVKEGSPVITFAWKKQDNQIWKMITAILEQKLISEEDLNSAVDHHHHHH
# Columns and labels:
# Experiment in all cases: glycan array binding signal (z-score within array); higher = stronger binding
# Conditions in all cases: glycan notation: IUPAC condensed, linker removed
# [1] = molecular target: Gal(b1-4)GlcNAc(b1-2)Man(a1-6)[Man(a1-3)]Man(b1-4)GlcNAc(b1-4)GlcNAc
# Procedure, shortened: (§1)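 The binding signal is a Z-score computed within each array. Data were drawn from 3228 arrays in the Consortium for Functional Glycomics database, restricted to those with a known protein sequence. Scores were averaged over arrays of the same protein sequence at different concentrations or buffers, and over linkers, and negative values can be taken as non-binding.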
# [2] = molecular target: Gal(b1-4)GlcNAc(b1-2)[Gal(b1-4)GlcNAc(b1-4)]Man(a1-3)[Gal(b1-4)GlcNAc(b1-2)Man(a1-6)]Man(b1-4)GlcNAc(b1-4)GlcNAc
# Procedure, shortened: as §1
# [3] = molecular target: Gal(b1-4)GlcNAc(b1-2)[Gal(b1-4)GlcNAc(b1-4)]Man(a1-3)[Gal(b1-4)GlcNAc(b1-2)[Gal(b1-4)GlcNAc(b1-6)]Man(a1-6)]Man(b1-4)GlcNAc(b1-4)GlcNAc
# Procedure, shortened: as §1
# [4] = molecular target: Gal(b1-4)GlcNAc(b1-2)[Gal(b1-4)GlcNAc(b1-4)]Man(a1-3)[GlcNAc(b1-4)][Gal(b1-4)GlcNAc(b1-2)Man(a1-6)]Man(b1-4)GlcNAc(b1-4)GlcNAc
# Procedure, shortened: as §1
# [5] = molecular target: Gal(b1-4)GlcNAc(b1-2)[Gal(b1-4)GlcNAc(b1-4)]Man(a1-3)[GlcNAc(b1-4)][Gal(b1-4)GlcNAc(b1-2)[Gal(b1-4)GlcNAc(b1-6)]Man(a1-6)]Man(b1-4)GlcNAc(b1-4)GlcNAc
# Procedure, shortened: as §1
# [6] = molecular target: Gal(b1-4)GlcNAc(b1-2)[Gal(b1-4)GlcNAc(b1-6)]Man(a1-6)[Gal(b1-4)GlcNAc(b1-2)Man(a1-3)]Man(b1-4)GlcNAc(b1-4)GlcNAc
# Procedure, shortened: as §1
# [7] = molecular target: Gal(b1-4)GlcNAc(b1-2)[Gal(b1-4)GlcNAc(b1-6)]Man(a1-6)[Gal(b1-4)GlcNAc(b1-2)Man(a1-3)]Man(b1-4)GlcNAc(b1-4)[Fuc(a1-6)]GlcNAc
# Procedure, shortened: as §1
# [8] = molecular target: Gal(b1-4)GlcNAc(b1-2)[Gal(b1-4)GlcNAc(b1-6)]Man(a1-6)[GlcNAc(b1-4)][Gal(b1-4)GlcNAc(b1-2)Man(a1-3)]Man(b1-4)GlcNAc(b1-4)GlcNAc
# Procedure, shortened: as §1
# [9] = molecular target: Gal(b1-4)GlcNAc(b1-2)[Gal(b1-4)GlcNAc(b1-6)]Man(a1-6)[GlcNAc(b1-4)][Gal(b1-4)GlcNAc(b1-2)[Gal(b1-4)GlcNAc(b1-4)]Man(a1-3)]Man(b1-4)GlcNAc(b1-4)[Fuc(a1-6)]GlcNAc
# Procedure, shortened: as §1
# [10] = molecular target: Gal(b1-4)GlcNAc(b1-3)Gal(b1-3)GalNAc
# Procedure, shortened: as §1
# [11] = molecular target: Gal(b1-4)GlcNAc(b1-3)Gal(b1-3)GlcNAc
# Procedure, shortened: as §1
# [12] = molecular target: Gal(b1-4)GlcNAc(b1-3)Gal(b1-4)Glc
# Procedure, shortened: as §1
# [13] = molecular target: Gal(b1-4)GlcNAc(b1-3)Gal(b1-4)GlcNAc
# Procedure, shortened: as §1
# [14] = molecular target: Gal(b1-4)GlcNAc(b1-3)Gal(b1-4)GlcNAc(b1-2)Man(a1-3)[Gal(b1-4)GlcNAc(b1-3)Gal(b1-4)GlcNAc(b1-2)Man(a1-6)]Man(b1-4)GlcNAc(b1-4)GlcNAc
# Procedure, shortened: as §1
# [15] = molecular target: Gal(b1-4)GlcNAc(b1-3)Gal(b1-4)GlcNAc(b1-2)Man(a1-3)[Gal(b1-4)GlcNAc(b1-3)Gal(b1-4)GlcNAc(b1-2)Man(a1-6)]Man(b1-4)GlcNAc(b1-4)[Fuc(a1-6)]GlcNAc
# Procedure, shortened: as §1
# [16] = molecular target: Gal(b1-4)GlcNAc(b1-3)Gal(b1-4)GlcNAc(b1-2)[Gal(b1-4)GlcNAc(b1-3)Gal(b1-4)GlcNAc(b1-6)]Man(a1-6)[Gal(b1-4)GlcNAc(b1-3)Gal(b1-4)GlcNAc(b1-2)Man(a1-3)]Man(b1-4)GlcNAc(b1-4)GlcNAc
# Procedure, shortened: as §1
# [17] = molecular target: Gal(b1-4)GlcNAc(b1-3)Gal(b1-4)GlcNAc(b1-2)[Gal(b1-4)GlcNAc(b1-3)Gal(b1-4)GlcNAc(b1-6)]Man(a1-6)[Gal(b1-4)GlcNAc(b1-3)Gal(b1-4)GlcNAc(b1-2)Man(a1-3)]Man(b1-4)GlcNAc(b1-4)[Fuc(a1-6)]GlcNAc
# Procedure, shortened: as §1
# [18] = molecular target: Gal(b1-4)GlcNAc(b1-3)Gal(b1-4)GlcNAc(b1-3)Gal(b1-4)GlcNAc
# Procedure, shortened: as §1
# [19] = molecular target: Gal(b1-4)GlcNAc(b1-3)Gal(b1-4)GlcNAc(b1-3)Gal(b1-4)GlcNAc(b1-2)Man(a1-3)[Gal(b1-4)GlcNAc(b1-3)Gal(b1-4)GlcNAc(b1-3)Gal(b1-4)GlcNAc(b1-2)Man(a1-6)]Man(b1-4)GlcNAc(b1-4)GlcNAc
# Procedure, shortened: as §1
# [20] = molecular target: Gal(b1-4)GlcNAc(b1-3)Gal(b1-4)GlcNAc(b1-3)Gal(b1-4)GlcNAc(b1-2)Man(a1-3)[Gal(b1-4)GlcNAc(b1-3)Gal(b1-4)GlcNAc(b1-3)Gal(b1-4)GlcNAc(b1-2)Man(a1-6)]Man(b1-4)GlcNAc(b1-4)[Fuc(a1-6)]GlcNAc
# Procedure, shortened: as §1
# [21] = molecular target: Gal(b1-4)GlcNAc(b1-3)Gal(b1-4)GlcNAc(b1-3)Gal(b1-4)GlcNAc(b1-2)[Gal(b1-4)GlcNAc(b1-3)Gal(b1-4)GlcNAc(b1-3)Gal(b1-4)GlcNAc(b1-6)]Man(a1-6)[Gal(b1-4)GlcNAc(b1-3)Gal(b1-4)GlcNAc(b1-3)Gal(b1-4)GlcNAc(b1-2)Man(a1-3)]Man(b1-4)GlcNAc(b1-4)[Fuc(a1-6)]GlcNAc
# Procedure, shortened: as §1
# [22] = molecular target: Gal(b1-4)GlcNAc(b1-3)Gal(b1-4)GlcNAc(b1-3)Gal(b1-4)GlcNAc(b1-3)Gal(b1-4)GlcNAc(b1-2)Man(a1-3)[Gal(b1-4)GlcNAc(b1-3)Gal(b1-4)GlcNAc(b1-3)Gal(b1-4)GlcNAc(b1-3)Gal(b1-4)GlcNAc(b1-2)Man(a1-6)]Man(b1-4)GlcNAc(b1-4)GlcNAc
# Procedure, shortened: as §1
binder,measurement,setting,value
B1,glycan array binding signal (z-score),[1],0.338
same,glycan array binding signal (z-score),[2],-2.62
same,glycan array binding signal (z-score),[3],-0.549
same,glycan array binding signal (z-score),[4],-0.024
same,glycan array binding signal (z-score),[5],0.484
same,glycan array binding signal (z-score),[6],0.38
same,glycan array binding signal (z-score),[7],0.56
same,glycan array binding signal (z-score),[8],-0.969
same,glycan array binding signal (z-score),[9],-1.18
same,glycan array binding signal (z-score),[10],2.27
same,glycan array binding signal (z-score),[11],-0.074
same,glycan array binding signal (z-score),[12],0.496
same,glycan array binding signal (z-score),[13],-0.248
same,glycan array binding signal (z-score),[14],1.43
same,glycan array binding signal (z-score),[15],0.163
same,glycan array binding signal (z-score),[16],1.48
same,glycan array binding signal (z-score),[17],-1.26
same,glycan array binding signal (z-score),[18],-1.46
same,glycan array binding signal (z-score),[19],0.233
same,glycan array binding signal (z-score),[20],-0.462
same,glycan array binding signal (z-score),[21],-1.91
same,glycan array binding signal (z-score),[22],-1.57

# A portion taken from the entries so far, for reference:
binder,measurement,setting,value
B1,glycan array binding signal (z-score),[14],1.43
same,glycan array binding signal (z-score),[15],0.163
